Results: patent US11865126B2, “Method for treating anxiety disorders, headache disorders, and eating disorders with psilocybin” (priority 2019, dated 2024)
“Also recorded” adds a separate entry of the source. At least one structure is not confirmed: it was looked up by name or label, or the drawing left a doubt.

Tested on: healthy subjects
Assay: Life Changes Inventory (LCI)
Type: in vivo, human
Description: In some embodiments, the Life Changes Inventory (LCI) questionnaire is utilized to evaluate the safety and/or efficacy of psilocybin. The LCI is designed as a questionnaire to investigate those variables present in the day-to-day experience of adults that might relate either to stability or decline of intellectual ability.
The following list of outcome measures are non-exhaustive. • a. The short-term change from Baseline (Day −1 [Visit 2]) to Day 7 (Visit 5) in cognitive measures of attention, spatial and working memory and executive function was measured by a composite score of the CANTAB Panel (Spatial Working Memory [SWM], Rapid Visual Information Processing [RVP], Paired Associates Learning [PAL]). • b. The short-term change from Baseline (Day −1 [Visit 2]) to Day 7 (Visit 5) in Social Cognition Panel scales (Pictorial Empathy Test [PET], Reading the Mind in the Eyes Test [RMET], Toronto Empathy Questionnaire [TEQ], Social Value Orientation [SVO], Scale of Social Responsibility [SSR]). • c. The change from Baseline (Day −1 [Visit 2]) to Day 28 (Visit 6) in cognitive measures of attention, spatial and working memory and executive function as measured by a composite score of the CANTAB Panel (SWM, RVP, PAL). • d. The long-term change from Baseline (Day −1 [Visit 2]) to Day 84 (Visit 7) in Social Cognition Panel scales (PET, RMET, TEQ, SVO, SSR). • e. Dose-related differences between cognitive effects of psilocybin at Baseline (Day −1 [Visit 2]), Day 7 (Visit 5) and Day 28 (Visit 6), as measured by a composite score of the CANTAB Panel (SWM, RVP, PAL). • f. Dose-related differences between psychological effects of psilocybin at Baseline (Day −1 [Visit 2]), Day 7 (Visit 5) and Day 84 (Visit 7), as measured by Social Cognition Panel scales (PET, RMET, TEQ, SVO, SSR). • g. Differences in cognitive effects of psilocybin between psilocybin-naïve and experienced subjects at Baseline (Day −1 [Visit 2]), Day 7 (Visit 5) and Day 28 (Visit 6), as measured by a composite score of the CANTAB Panel (SWM, RVP, PAL). • h. Differences in Positive and Negative Affect Schedule (PANAS) after study drug administration on Day 0 (Visit 3). • i. Differences between psilocybin and placebo in the Emotion Recognition Test (ERT), Intra-Extra Dimensional Set Shift (IED), One Touch Stockings (OTS), Verbal Fluency and Digit Span Forward at Day 7 (Visit 5). • j. A composite score of the CANTAB Panel, including the following tests: • i. Spatial Working Memory (SWM) (performed at Visit 2, Visit 5, and Visit 6). • ii. Rapid Visual Information Processing (RVP) (performed at Visit 2, Visit 5, and Visit 6). • iii. Paired Associates Learning (PAL) (performed at Visit 2, Visit 5, and Visit 6). • k. Cognitive Flexibility Panel • i. Emotion Recognition Task (ERT) (performed at Visit 5). • ii. Intra-Extra Dimensional Set Shift (IED) (performed at Visit 5). • iii. One Touch Stockings (OTS) (performed at Visit 5). • iv. Verbal Fluency (performed at Visit 5). • v. Digit Span Forward (performed at Visit 5). • l. Five Dimension Altered States of Consciousness questionnaire (5D-ASC) (performed at Visit 3). • m. PANAS (performed at Visit 2 and Visit 3). • n. NEO-Five Factor Inventory (NEO-FFI) (performed at Visit 2, Visit 5, and Visit 7). • o. Symptom Checklist-90 item (SCL-90) (performed at Visit 2, Visit 5, and Visit 7). • p. Life Changes Inventory (LCI): The LCI measures changes in attitudes and values after near-death experiences often used to evaluate personal transformation following spiritually oriented experiences and practices. (performed at Visit 5 and Visit 7). • q. Social Cognition Panel scales • i. Pictorial Empathy Test (PET) (performed at Visit 2, Visit 5, and Visit 7). • ii. Reading the Mind in the Eyes Test (RMET) (performed at Visit 2, Visit 5, and Visit 7). • iii. Social Value Orientation (SVO) (performed at Visit 2, Visit 5, and Visit 7). • iv. Toronto Empathy Questionnaire (TEQ) (performed at Visit 2, Visit 5, and Visit 7). • v. […]

CN(C)CCc1c[nH]c2cccc(OP(=O)(O)O)c12 [psilocybin]
LCI Religiousness and Appreciation of Death (10 mg and 25 mg): unaffected | LCI Spirituality, Concern for Worldly Achievement, and Concern Social (10 mg and 25 mg): Positive trends | LCI Self-Acceptance (10 mg and 25 mg, Day 7 and Day 84, p<0.0001 (p<0.001)): increase; also recorded: improved LCI self-acceptance score compared to placebo | LCI absolute change compared to placebo (10 mg and 25 mg, Day 7 and Day 84, p≤0.0007): higher absolute change in LCI compared to the placebo group; also recorded: increase | LCI Concern for Others (10 mg and 25 mg, P≤0.0075): increase | LCI Quest for Meaning (10 mg and 25 mg, p<0.0139): increase | LCI Appreciation for Life (10 mg and 25 mg, p≤0.0028): increase | LCI domains, differences between dose effects (10 mg versus 25 mg) (Day 7 and Day 84): not statistically significant | LCI domains, overall effect of treatment (MMRM) (all domains except Concern Social, Religiousness, and Appreciation of Death): overall effect of treatment was found
